Measurements published in paper PMC9099420.
These are yes or no findings as the source states them, for the method shown. In cells and extracts the contact can be indirect. Some binding calls cover weakened binding; strength is not graded here.

The chains behind the UniProt entries cited, without tags or fusion partners.
UniProt Q7JJ13: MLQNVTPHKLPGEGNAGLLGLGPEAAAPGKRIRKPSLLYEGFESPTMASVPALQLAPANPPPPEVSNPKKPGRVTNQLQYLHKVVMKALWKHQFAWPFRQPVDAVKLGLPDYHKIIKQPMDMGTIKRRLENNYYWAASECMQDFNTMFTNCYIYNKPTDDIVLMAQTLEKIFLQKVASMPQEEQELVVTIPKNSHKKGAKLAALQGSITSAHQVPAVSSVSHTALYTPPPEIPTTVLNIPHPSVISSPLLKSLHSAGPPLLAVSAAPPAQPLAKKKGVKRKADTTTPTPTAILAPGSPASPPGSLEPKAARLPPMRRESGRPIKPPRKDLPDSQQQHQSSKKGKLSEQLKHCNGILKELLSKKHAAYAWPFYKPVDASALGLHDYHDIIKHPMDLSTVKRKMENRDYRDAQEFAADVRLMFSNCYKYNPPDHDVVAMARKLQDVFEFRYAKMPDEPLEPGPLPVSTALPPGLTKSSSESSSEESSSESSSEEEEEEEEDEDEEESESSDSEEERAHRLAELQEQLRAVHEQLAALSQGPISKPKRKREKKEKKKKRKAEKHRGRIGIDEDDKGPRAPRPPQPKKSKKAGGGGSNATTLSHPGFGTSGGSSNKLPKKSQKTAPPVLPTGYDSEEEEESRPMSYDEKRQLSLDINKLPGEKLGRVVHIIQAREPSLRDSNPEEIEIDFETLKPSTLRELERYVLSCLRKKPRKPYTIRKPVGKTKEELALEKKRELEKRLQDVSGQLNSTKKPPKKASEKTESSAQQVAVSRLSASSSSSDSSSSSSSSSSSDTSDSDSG

Biological target: T1, CTCF (mouse (endogenous in mouse ESCs)) (UniProt Q61164)
T1 sequence: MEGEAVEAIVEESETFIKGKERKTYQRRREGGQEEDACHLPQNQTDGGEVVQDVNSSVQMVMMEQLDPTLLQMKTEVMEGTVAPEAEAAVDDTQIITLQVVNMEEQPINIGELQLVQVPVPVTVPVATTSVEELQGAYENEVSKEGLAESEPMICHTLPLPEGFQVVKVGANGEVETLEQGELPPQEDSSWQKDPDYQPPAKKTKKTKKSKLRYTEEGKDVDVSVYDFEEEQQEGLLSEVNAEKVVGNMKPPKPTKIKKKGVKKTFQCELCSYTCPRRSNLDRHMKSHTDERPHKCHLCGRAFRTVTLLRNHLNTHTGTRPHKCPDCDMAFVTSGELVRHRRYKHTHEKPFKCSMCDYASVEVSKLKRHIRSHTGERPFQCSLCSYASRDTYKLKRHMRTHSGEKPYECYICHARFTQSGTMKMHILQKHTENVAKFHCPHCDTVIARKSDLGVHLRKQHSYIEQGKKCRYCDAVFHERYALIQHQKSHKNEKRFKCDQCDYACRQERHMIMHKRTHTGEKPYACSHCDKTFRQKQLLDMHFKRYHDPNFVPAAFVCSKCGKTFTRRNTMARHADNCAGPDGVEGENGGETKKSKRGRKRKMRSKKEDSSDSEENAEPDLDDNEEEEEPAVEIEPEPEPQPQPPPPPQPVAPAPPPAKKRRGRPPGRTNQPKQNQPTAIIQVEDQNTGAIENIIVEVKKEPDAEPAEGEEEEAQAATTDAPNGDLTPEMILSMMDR
Assay: co-IP; endogenous proteins from mouse ESC nuclear lysate, untreated (UT) or Benzonase treated (2 h, 4°C); 0.3 M NaCl co-IP buffer (25 mM HEPES, 1 mM MgCl2, 0.2 mM EDTA, 0.5% NP-40); IP with IgG, BRD2 or CTCF antibodies on Protein G magnetic beads, western blot

Question: How did the binding turn out when BRD2 (from UniProt Q7JJ13 1-798) was run?
Answer: binds
